Experimental data: the supplement of paper PMC7661543
± gives the standard deviation of the averaged measurements. The effect of the compound repeats well; differences between the knockouts mostly do not.

Tests used:
HCC-38 = assay: relative cell number vs DMSO control (72 h) (% of DMSO); higher = less growth inhibition (more cells)
Experimental: (§1)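 QMAP-Seq: a pool of 5 breast cancer cell lines (ZR-75-1, SKBR3, HCC-38, MDA-MB-231, BT-20), each carrying 12 doxycycline-inducible Cas9 sgRNA perturbations (11 knockouts plus non-targeting sgNT), was treated with compounds for 72 h at four 10-fold doses (10 nM-10 uM or 1 nM-1 uM range). Barcodes were amplified and sequenced, and cell number was interpolated from 293T spike-in standard curves. The result is expressed as % of the median of DMSO wells. Two biological replicates.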

MDA-MB-231 = assay: as above
Experimental: as §1

COc1cc(/C=C/C(=O)CC(=O)/C=C/c2ccc(O)c(OC)c2)ccc1O [Curcumin]
relative cell number
Conditions | HCC-38 | MDA-MB-231
sgRNA knockout: sgATF3, 10 nM | 108 ± 9.8 | 127 ± 19
sgRNA knockout: sgATF3, 100 nM | 95.4 ± 1.7 | 94.66 ± 0.85
sgRNA knockout: sgATF3, 1000 nM | 88.7 ± 1 | 101 ± 13
sgRNA knockout: sgATF3, 10000 nM | 76.1 ± 17 | 80.8 ± 5.4
sgRNA knockout: sgATF4, 10 nM | 95.7 ± 13 | 107 ± 12
sgRNA knockout: sgATF4, 100 nM | 100 ± 14 | 132 ± 10
sgRNA knockout: sgATF4, 1000 nM | 94.7 ± 7.1 | 107.1 ± 1
sgRNA knockout: sgATF4, 10000 nM | 73.5 ± 24 | 84.4 ± 33
sgRNA knockout: sgATF6, 10 nM | 103 ± 1.6 | 102 ± 15
sgRNA knockout: sgATF6, 100 nM | 91.8 ± 0.2 | 91.64 ± 0.22
sgRNA knockout: sgATF6, 1000 nM | 87.5 ± 9.2 | 97.2 ± 14
sgRNA knockout: sgATF6, 10000 nM | 84.8 ± 21 | 74.4 ± 5.5
sgRNA knockout: sgATG7, 10 nM | 104 ± 18 | 105.7 ± 0.95
sgRNA knockout: sgATG7, 100 nM | 111 ± 20 | 125 ± 9.8
sgRNA knockout: sgATG7, 1000 nM | 97.4 ± 12 | 88.8 ± 11
sgRNA knockout: sgATG7, 10000 nM | 83.5 ± 21 | 84.511 ± 0.022
sgRNA knockout: sgERN1, 10 nM | 106 ± 2.1 | 98.49 ± 0.45
sgRNA knockout: sgERN1, 100 nM | 108 ± 3.2 | 110 ± 25
sgRNA knockout: sgERN1, 1000 nM | 96.6 ± 5.5 | 90.1 ± 1.6
sgRNA knockout: sgERN1, 10000 nM | 77.2 ± 15 | 87.3 ± 7.2
sgRNA knockout: sgHSF1, 10 nM | 102 ± 20 | 103.78 ± 0.1
sgRNA knockout: sgHSF1, 100 nM | 105 ± 1.6 | 114 ± 16
sgRNA knockout: sgHSF1, 1000 nM | 96.1 ± 9.8 | 83.6 ± 11
sgRNA knockout: sgHSF1, 10000 nM | 84.9 ± 20 | 89.8 ± 30
sgRNA knockout: sgHSF2, 10 nM | 99.3 ± 12 | 110 ± 8.3
sgRNA knockout: sgHSF2, 100 nM | 105 ± 20 | 115 ± 2.4
sgRNA knockout: sgHSF2, 1000 nM | 105 ± 12 | 99.3 ± 14
sgRNA knockout: sgHSF2, 10000 nM | 90.6 ± 13 | 85.1 ± 17
sgRNA knockout: sgKEAP1, 10 nM | 107 ± 9.6 | 104 ± 1.7
sgRNA knockout: sgKEAP1, 100 nM | 112 ± 11 | 110 ± 19
sgRNA knockout: sgKEAP1, 1000 nM | 103 ± 11 | 112 ± 39
sgRNA knockout: sgKEAP1, 10000 nM | 76.4 ± 8.8 | 74.8 ± 24
sgRNA knockout: sgNFE2L2, 10 nM | 89.1 ± 19 | 94.1 ± 17
sgRNA knockout: sgNFE2L2, 100 nM | 94.7 ± 21 | 118 ± 12
sgRNA knockout: sgNFE2L2, 1000 nM | 90.6 ± 4.6 | 88.27 ± 0.0079
sgRNA knockout: sgNFE2L2, 10000 nM | 72.2 ± 20 | 94.2 ± 27
sgRNA knockout: sgSLC35F2, 10 nM | 97.4 ± 5.1 | 123 ± 14
sgRNA knockout: sgSLC35F2, 100 nM | 101 ± 4.6 | 113 ± 18
sgRNA knockout: sgSLC35F2, 1000 nM | 89.9 ± 6.5 | 93.9 ± 23
sgRNA knockout: sgSLC35F2, 10000 nM | 76.8 ± 8.6 | 78.4 ± 4.1
sgRNA knockout: sgXBP1, 10 nM | 95.7 ± 13 | 84.6 ± 6.1
sgRNA knockout: sgXBP1, 100 nM | 96.9 ± 7.7 | 107 ± 3.6
sgRNA knockout: sgXBP1, 1000 nM | 97.7 ± 5.9 | 80 ± 9
sgRNA knockout: sgXBP1, 10000 nM | 80.5 ± 16 | 77.4 ± 16
